Measured values taken from PMC8610276.
Results are given in words; binding and its absence hold for the method and conditions named. Binding seen in cells or lysates may run through a third protein. Some results given as binding are weak or reduced against the parent protein; the word gives no strength. One block for each molecule: values may come before it.

By UniProt entry, the sequences of proteins in these tests, tags left out.
UniProt P62198: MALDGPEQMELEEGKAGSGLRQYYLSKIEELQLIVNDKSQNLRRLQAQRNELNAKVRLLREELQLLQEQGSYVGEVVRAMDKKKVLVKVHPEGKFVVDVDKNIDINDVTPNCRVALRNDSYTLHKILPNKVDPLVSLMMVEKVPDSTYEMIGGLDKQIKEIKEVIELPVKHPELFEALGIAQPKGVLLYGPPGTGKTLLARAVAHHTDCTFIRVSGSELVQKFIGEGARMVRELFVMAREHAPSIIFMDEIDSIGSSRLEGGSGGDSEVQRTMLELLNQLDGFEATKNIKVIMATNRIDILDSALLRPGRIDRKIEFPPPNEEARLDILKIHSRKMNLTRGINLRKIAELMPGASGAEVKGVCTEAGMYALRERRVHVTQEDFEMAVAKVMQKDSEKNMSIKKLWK
UniProt P67999: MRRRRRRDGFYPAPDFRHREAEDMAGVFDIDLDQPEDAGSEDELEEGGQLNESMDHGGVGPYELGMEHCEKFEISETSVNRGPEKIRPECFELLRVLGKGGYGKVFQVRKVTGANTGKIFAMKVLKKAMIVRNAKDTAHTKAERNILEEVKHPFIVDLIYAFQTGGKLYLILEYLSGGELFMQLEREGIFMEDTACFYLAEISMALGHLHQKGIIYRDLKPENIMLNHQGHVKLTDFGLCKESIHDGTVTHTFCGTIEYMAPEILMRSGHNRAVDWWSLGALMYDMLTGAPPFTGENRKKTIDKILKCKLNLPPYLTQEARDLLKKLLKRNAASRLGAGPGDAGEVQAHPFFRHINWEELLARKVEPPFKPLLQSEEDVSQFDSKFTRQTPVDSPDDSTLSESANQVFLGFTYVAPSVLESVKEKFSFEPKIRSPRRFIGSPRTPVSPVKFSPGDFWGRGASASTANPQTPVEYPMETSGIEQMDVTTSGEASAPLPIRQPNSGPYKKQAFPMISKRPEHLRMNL

Assays:
[1] = target: Rpt6 subunit of the 19S proteasome (rat) (rat (endogenous in hippocampus)) (UniProt P62198); test: co-IP; Rpt6 antibody (5 ug) or mouse IgG with protein G-agarose on post-mitochondrial supernatant of adult SD rat hippocampi; lysis in 50 mM Tris pH 7.5, 150 mM NaCl, 1% NP-40, 2 mM EDTA with RNase inhibitor; washes with 150, 300 and 450 mM NaCl; 4°C; western blot
[2] = target: T1, MOV10, helicase and RNA-binding protein (rat) (rat (endogenous in hippocampus and in cultured hippocampal neurons)) (UniProt D3ZUC2); test: co-IP; MOV10 antibody with protein G-agarose on lysates of cultured rat hippocampal neurons (control or Trim32 shRNA) treated with bicuculline (10 uM) or vehicle for 24 hours, all with lactacystin (10 uM); 50 mM Tris-HCl pH 7.5, 100 mM KCl, 12 mM MgCl2; washes with 300 mM KCl; 4°C; western blot
T1 sequence: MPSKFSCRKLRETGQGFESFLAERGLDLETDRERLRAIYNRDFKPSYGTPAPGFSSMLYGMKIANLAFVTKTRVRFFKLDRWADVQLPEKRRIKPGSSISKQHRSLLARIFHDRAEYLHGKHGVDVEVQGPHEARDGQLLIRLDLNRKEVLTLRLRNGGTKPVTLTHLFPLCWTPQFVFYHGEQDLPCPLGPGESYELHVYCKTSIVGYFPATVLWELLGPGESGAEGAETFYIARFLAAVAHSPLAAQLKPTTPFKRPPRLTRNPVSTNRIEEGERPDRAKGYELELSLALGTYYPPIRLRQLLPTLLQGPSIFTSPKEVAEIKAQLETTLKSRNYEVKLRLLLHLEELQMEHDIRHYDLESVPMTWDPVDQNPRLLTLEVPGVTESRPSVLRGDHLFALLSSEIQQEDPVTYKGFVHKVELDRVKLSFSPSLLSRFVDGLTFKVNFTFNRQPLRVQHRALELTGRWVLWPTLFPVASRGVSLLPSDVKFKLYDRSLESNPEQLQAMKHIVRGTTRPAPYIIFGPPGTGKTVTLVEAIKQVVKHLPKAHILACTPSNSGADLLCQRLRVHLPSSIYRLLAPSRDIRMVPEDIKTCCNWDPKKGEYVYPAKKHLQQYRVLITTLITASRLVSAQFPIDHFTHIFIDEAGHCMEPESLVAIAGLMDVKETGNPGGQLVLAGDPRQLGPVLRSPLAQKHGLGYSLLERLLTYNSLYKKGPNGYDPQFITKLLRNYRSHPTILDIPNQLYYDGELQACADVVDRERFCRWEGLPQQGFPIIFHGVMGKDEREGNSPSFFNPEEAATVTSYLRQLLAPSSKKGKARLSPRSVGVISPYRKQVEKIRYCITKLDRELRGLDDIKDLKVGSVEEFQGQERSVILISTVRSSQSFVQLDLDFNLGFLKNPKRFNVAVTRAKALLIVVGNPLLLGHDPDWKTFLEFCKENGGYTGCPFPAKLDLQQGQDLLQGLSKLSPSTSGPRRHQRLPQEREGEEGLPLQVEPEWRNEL

[3] = target: T1, MOV10, helicase and RNA-binding protein (rat) (rat (endogenous in hippocampus and in cultured hippocampal neurons)); test: co-IP; MOV10 antibody (5 ug) or rabbit IgG with protein G-agarose on post-mitochondrial supernatant of adult SD rat hippocampi; lysis in 50 mM Tris pH 7.5, 150 mM NaCl, 1% NP-40, 2 mM EDTA with RNase inhibitor; washes with 150 and 300 mM NaCl; 4°C; western blot

- binding [1]: binds
Molecule: p70 S6 kinase (rat) (from UniProt P67999 1-525)

- binding [2]: binds
- binding [3]: binds
B1: Trim32, E3 ligase (rat) (protein, UniProt Q66H79 1-655)
chain: MAAAAAASHLNLDALREVLECPICMESFTEEQLRPKLLHCGHTICRQCLEKLLASSINGVRCPFCSKITRITSLTQLTDNLTVLKIIDTAGLSEAVGLLMCRACGRRLPRQFCRSCGLVLCEPCREADHQPPGHCTLPVKEAAEERRRDFGEKLTRLRELTGELQRRKAALEGVSRDLQARYKAVLQEYGHEERRVQEELARSRKFFTGSLAEVEKSNSQVVEEQSYLLNIAEVQAVSRCDYFLAKIKQADVALLEETADEEEPELTASLPRELTLQDVELLKVGHVGPLQIGQAVKKPRTVNMEDSWAVEEGAASSASASVTFREMDMSPEEVVPSPRASPAKQRSSEAASSIQQCLFLKKMGAKGSTPGMFNLPVSLYVTSQSEVLVADRGNYRIQVFNRKGFLKEIRRSPSGIDSFVLSFLGADLPNLTPLSVAMNCHGLIGVTDSYDNSLKVYTLDGHCVACHRSQLSKPWGITALPSGQFVVTDVEGGKLWCFTVDRGAGVVKYSCLCSAVRPKFVTCDAEGTVYFTQGLGLNVENRQNEHHLEGGFSIGSVGPDGQLGRQISHFFSENEDFRCIAGMCVDARGDLIVADSSRKEILHFPKGGGYSVLIREGLTCPVGIALTPKGQLLVLDCWDHCVKIYSYHLRRYSTP
